No constants are given. Whether binding was seen depends on the method and setting. Some binding calls cover weakened binding; strength is not graded here.
How the values were obtained:
[1] = biological target: Cyno CD71-His6 (cynomolgus monkey); assay: BLI (Octet)
[2] = biological target: Human CD71-His6 (human) (UniProt P02786); assay: BLI (Octet)

Sequences of proteins named here, by UniProt entry; tags and fusion partners are left off. A change or cut given only in a name is not applied to a line headed by its entry. A line that says so, or that is headed by a name, gives the form on record, which may keep a tag or linker.
Human CD71-His6 (P02786, form named): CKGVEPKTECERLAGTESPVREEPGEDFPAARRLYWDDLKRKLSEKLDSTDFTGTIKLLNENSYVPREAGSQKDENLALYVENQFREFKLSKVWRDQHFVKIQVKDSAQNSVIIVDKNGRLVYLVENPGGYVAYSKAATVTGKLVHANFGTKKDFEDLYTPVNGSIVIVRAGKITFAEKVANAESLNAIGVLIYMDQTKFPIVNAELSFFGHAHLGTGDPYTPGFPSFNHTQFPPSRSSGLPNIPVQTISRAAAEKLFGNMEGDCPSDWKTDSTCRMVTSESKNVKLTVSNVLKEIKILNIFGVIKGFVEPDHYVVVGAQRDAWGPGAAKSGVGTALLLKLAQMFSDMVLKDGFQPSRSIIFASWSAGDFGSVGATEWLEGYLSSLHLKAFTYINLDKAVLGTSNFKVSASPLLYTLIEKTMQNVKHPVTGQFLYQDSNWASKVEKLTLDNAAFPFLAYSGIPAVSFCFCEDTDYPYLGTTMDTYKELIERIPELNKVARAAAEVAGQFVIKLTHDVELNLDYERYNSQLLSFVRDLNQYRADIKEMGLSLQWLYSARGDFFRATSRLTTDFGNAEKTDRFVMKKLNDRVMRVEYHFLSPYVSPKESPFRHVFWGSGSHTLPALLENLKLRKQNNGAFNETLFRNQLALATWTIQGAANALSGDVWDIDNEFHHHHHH

B1: anti-CD71 Fab fragment (papain digest of anti-CD71 21.12) (Fab, V domains shown)
VH: QVQLVQSGAEVKKPGASVKMSCKASGYTFTSYWMHWVRQAPGQGLEWIGAIYPGNSETGYAQKFQGRATLTADTSTSTAYMELSSLRSEDTAVYYCTRENWDPGFAFWGQGTLITVSS
VL: DIQMTQSPSSLSASVGDRVTITCSASSSVYYMYWFQQKPGKAPKLWIYSTSNLASGVPSRFSGSGSGTDYTLTISSMQPEDFATYYCQQRRNYPYTFGQGTKLEIKR
B1 was tested, and the binding [1] was “binds” and the binding [2] was “binds”.
